# Data published in patent publication US11780935B2 (Pfizer Healthcare Ireland, priority 2012, dated 2023).
# Assay: general procedure: Fmoc solid-phase peptide synthesis; Fmoc-Rink-PL resin (0.67 mmol/g); HBTU/HOBt/NMM
# Conditions: late stage modification step
substance,measurement,setting,value
"2-Methylalanyl-N-[(3R,4S,5S)-3-methoxy-1-{(2S)-2-[(1R,2R)-1-methoxy-2-methyl-3-oxo-3-{[(1S)-2-phenyl-1-(1,3-thiazol-2-yl)ethyl]amino}propyl]pyrrolidin-1-yl}-5-methyl-1-oxoheptan-4-yl]-N-methyl-L-valinamide",step yield,,75%
same,final HPLC purity,HPLC Protocol A,>97%
